Measurements published in PMC12266122.
These are yes or no findings as the source states them, for the method shown. In cells and extracts the contact can be indirect. These calls come from enrichment with a bait or labelling near it, and not all partners need be listed. Values belong to the binder of their own block, whether it stands above or below them.

The chains behind the UniProt entries cited, without tags or fusion partners.
UniProt Q9H4A3: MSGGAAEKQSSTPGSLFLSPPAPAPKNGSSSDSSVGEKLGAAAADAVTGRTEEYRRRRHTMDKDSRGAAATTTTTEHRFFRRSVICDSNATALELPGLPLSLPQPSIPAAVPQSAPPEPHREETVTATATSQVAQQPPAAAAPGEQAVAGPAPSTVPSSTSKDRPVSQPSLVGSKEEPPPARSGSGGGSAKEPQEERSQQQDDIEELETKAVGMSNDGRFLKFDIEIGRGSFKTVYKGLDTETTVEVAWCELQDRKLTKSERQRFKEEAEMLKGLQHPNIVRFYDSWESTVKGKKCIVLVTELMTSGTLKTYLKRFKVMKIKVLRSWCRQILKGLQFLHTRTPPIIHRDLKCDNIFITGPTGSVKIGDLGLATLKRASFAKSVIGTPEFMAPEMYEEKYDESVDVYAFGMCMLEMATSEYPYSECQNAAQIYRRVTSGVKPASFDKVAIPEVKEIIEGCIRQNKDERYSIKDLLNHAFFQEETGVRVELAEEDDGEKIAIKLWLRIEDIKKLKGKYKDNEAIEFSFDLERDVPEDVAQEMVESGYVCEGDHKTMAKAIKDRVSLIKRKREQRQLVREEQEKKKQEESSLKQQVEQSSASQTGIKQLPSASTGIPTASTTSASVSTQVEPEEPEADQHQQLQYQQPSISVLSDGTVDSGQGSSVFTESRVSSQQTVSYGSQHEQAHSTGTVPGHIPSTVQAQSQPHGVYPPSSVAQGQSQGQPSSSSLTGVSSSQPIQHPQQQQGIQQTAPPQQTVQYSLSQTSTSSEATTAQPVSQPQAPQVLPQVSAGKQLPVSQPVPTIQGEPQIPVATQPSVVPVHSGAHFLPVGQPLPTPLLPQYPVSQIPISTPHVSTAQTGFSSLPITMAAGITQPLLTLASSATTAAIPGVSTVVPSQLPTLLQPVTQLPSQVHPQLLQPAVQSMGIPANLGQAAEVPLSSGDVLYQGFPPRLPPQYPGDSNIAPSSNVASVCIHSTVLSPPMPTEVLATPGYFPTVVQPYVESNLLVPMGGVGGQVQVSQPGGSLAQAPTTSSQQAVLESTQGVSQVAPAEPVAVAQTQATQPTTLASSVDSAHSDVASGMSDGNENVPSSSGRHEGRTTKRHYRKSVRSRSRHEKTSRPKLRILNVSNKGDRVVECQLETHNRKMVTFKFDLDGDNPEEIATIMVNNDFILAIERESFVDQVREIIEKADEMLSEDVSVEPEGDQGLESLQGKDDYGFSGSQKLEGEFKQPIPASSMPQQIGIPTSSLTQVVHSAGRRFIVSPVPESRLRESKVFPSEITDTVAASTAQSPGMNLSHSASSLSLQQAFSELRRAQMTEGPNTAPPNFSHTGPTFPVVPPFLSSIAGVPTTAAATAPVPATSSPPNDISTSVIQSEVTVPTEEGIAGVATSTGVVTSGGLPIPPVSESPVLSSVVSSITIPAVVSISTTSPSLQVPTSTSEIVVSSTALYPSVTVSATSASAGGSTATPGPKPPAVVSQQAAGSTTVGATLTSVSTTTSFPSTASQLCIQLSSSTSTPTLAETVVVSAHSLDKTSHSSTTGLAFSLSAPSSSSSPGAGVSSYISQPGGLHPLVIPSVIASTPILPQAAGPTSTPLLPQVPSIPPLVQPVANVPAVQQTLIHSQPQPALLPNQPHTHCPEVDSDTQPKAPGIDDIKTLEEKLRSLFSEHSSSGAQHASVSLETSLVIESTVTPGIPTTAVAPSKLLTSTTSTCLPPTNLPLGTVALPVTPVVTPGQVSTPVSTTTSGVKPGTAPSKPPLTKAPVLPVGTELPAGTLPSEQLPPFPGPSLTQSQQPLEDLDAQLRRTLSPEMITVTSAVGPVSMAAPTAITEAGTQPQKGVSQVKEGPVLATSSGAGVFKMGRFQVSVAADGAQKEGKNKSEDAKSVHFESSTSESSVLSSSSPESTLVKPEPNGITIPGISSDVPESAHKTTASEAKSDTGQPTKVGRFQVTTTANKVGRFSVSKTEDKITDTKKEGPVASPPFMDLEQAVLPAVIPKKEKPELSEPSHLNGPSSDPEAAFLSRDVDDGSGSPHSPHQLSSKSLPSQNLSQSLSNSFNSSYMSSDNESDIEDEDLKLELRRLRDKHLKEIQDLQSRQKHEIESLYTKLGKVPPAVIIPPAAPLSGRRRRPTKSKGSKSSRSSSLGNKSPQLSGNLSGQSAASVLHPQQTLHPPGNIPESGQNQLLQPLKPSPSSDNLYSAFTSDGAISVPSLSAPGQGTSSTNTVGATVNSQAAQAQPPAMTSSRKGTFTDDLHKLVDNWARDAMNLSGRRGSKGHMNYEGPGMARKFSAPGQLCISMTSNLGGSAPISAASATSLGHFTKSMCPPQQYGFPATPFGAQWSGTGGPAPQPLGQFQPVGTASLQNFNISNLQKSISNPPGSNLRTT
UniProt Q9UHY1: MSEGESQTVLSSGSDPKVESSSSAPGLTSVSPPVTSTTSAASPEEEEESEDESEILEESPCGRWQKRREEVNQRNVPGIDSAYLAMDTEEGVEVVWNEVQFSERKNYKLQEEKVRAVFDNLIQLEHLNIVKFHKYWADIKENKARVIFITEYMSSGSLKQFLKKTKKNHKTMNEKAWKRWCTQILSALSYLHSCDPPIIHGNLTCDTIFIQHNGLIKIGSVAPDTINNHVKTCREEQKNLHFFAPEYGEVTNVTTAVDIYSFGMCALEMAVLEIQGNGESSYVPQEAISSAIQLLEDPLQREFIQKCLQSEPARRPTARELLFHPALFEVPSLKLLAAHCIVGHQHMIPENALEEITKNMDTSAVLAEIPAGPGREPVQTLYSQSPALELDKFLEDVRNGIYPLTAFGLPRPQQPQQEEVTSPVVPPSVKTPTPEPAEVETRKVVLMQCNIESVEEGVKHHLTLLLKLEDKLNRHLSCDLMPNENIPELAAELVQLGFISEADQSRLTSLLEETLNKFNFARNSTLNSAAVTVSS

What was measured:
[1] = biological target: GFP-WNK1 (N-terminal GFP knock-in at the endogenous WNK1 locus) (human (endogenous in HEK293)) (UniProt Q9H4A3); assay: proximity labelling; GFP-WNK1 TurboID cells with or without 0.5 M sorbitol; streptavidin magnetic bead pull-down from 2 mg lysate; immunoblot (Fig. 1F)
[2] = biological target: GFP-WNK1 (N-terminal GFP knock-in at the endogenous WNK1 locus) (human (endogenous in HEK293)) (UniProt Q9H4A3); assay: proximity labelling; GFP-WNK1 KI and WT HEK293 cells expressing Flag-TurboID-aGFP6M; 0.5 mM biotin with or without 0.5 M sorbitol for 5 min; streptavidin enrichment from lysate; DIA mass spectrometry
[3] = biological target: GFP-NRBP1 (N-terminal GFP knock-in at the endogenous NRBP1 locus) (human (endogenous in HEK293)) (UniProt Q9UHY1); assay: affinity purification with mass spectrometry; GFP-NRBP1 KI and WT HEK293 cells with or without 0.5 M sorbitol for 30 min; lysis in 20 mM Hepes pH 7.5, 150 mM NaCl, 0.5% NP-40; GFP-Trap magnetic beads, 4°C, 2 hours; DIA mass spectrometry

binding [1]: binds | binding [2]: binds | binding [3]: binds
B1: TSC22D4, endogenous (protein, UniProt Q9Y3Q8 1-395)
chain: MSGGKKKSSFQITSVTTDYEGPGSPGASDPPTPQPPTGPPPRLPNGEPSPDPGGKGTPRNGSPPPGAPSSRFRVVKLPHGLGEPYRRGRWTCVDVYERDLEPHSFGGLLEGIRGASGGAGGRSLDSRLELASLGLGAPTPPSGLSQGPTSWLRPPPTSPGPQARSFTGGLGQLVVPSKAKAEKPPLSASSPQQRPPEPETGESAGTSRAATPLPSLRVEAEAGGSGARTPPLSRRKAVDMRLRMELGAPEEMGQVPPLDSRPSSPALYFTHDASLVHKSPDPFGAVAAQKFSLAHSMLAISGHLDSDDDSGSGSLVGIDNKIEQAMDLVKSHLMFAVREEVEVLKEQIRELAERNAALEQENGLLRALASPEQLAQLPSSGVPRLGPPAPNGPSV

binding [1]: binds | binding [2]: binds
B2: TSC22D2, endogenous (protein, UniProt O75157 1-780)
chain: MSKMPAKKKSCFQITSVTTAQVATSITEDTESLDDPDESRTEDVSSEIFDVSRATDYGPEEVCERSSSEETLNNVGDAETPGTVSPNLLLDGQLAAAAAAPANGGGVVSARSVSGALASTLAAAATSAPAPGAPGGPQLAGSSAGPVTAAPSQPPTTCSSRFRVIKLDHGSGEPYRRGRWTCMEYYERDSDSSVLTRSGDCIRHSSTFDQTAERDSGLGATGGSVVVVVASMQGAHGPESGTDSSLTAVSQLPPSEKMSQPTPAQPQSFSVGQPQPPPPPVGGAVAQSSAPLPPFPGAATGPQPMMAAAQPSQPQGAGPGGQTLPPTNVTLAQPAMSLPPQPGPAVGAPAAQQPQQFAYPQPQIPPGHLLPVQPSGQSEYLQQHVAGLQPPSPAQPSSTGAAASPATAATLPVGTGQNASSVGAQLMGASSQPSEAMAPRTGPAQGGQVAPCQPTGVPPATVGGVVQPCLGPAGAGQPQSVPPPQMGGSGPLSAVPGGPHAVVPGVPNVPAAVPAPSVPSVSTTSVTMPNVPAPLAQSQQLSSHTPVSRSSSIIQHVGLPLAPGTHSAPTSLPQSDLSQFQTQTQPLVGQVDDTRRKSEPLPQPPLSLIAENKPVVKPPVADSLANPLQLTPMNSLATSVFSIAIPVDGDEDRNPSTAFYQAFHLNTLKESKSLWDSASGGGVVAIDNKIEQAMDLVKSHLMYAVREEVEVLKEQIKELVERNSLLERENALLKSLSSNDQLSQLPTQQANPGSTSQQQAVIAQPPQPTQPPQQPNVSSA
